No constants are given. Whether binding was seen depends on the method and setting. Binding seen in cells or lysates may run through a third protein. Some entries that bind do so weakly or less than the wild type.
Molecular target: T1, Ultraspiracle (USP) with C-terminus SmBiT (D. melanogaster) (UniProt P20153)
T1 sequence: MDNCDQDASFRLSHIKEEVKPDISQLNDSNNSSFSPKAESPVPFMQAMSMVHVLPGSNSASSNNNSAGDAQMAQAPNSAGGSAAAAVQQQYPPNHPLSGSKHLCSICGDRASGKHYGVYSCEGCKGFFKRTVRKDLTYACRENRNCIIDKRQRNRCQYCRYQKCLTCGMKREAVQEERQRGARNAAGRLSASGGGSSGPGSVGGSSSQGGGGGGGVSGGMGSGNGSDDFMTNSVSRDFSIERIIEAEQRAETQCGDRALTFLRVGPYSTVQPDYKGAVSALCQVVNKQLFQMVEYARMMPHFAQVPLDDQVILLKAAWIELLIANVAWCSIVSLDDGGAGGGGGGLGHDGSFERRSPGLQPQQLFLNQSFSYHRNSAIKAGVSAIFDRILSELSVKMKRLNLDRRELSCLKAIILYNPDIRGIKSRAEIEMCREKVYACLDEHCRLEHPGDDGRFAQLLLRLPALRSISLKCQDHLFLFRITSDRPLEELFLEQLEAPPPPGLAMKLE
Test: split reporter; live HEK293T cells transfected with a NanoBiT plasmid pair (combinations 1-8) and an EcI-containing plasmid; luminescence read every minute at 37°C before and after vehicle (EtOH) or 10 μM 20E; relative to the baseline before treatment

binding: binds
B1: Ecdysone receptor (EcR) with a C-terminal LgBiT (receptor, UniProt P34021 1-878)
chain: MKRRWSNNGGFMRLPEESSSEVTSSSNGLVLPSGVNMSPSSLDSHDYCDQDLWLCGNESGSFGGSNGHGLSQQQQSVITLAMHGCSSTLPAQTTIIPINGNANGNGGSTNGQYVPGATNLGALANGMLNGGFNGMQQQIQNGHGLINSTTPSTPTTPLHLQQNLGGAGGGGIGGMGILHHANGTPNGLIGVVGGGGGVGLGVGGGGVGGLGMQHTPRSDSVNSISSGRDDLSPSSSLNGYSANESCDAKKSKKGPAPRVQEELCLVCGDRASGYHYNALTCEGCKGFFRRSVTKSAVYCCKFGRACEMDMYMRRKCQECRLKKCLAVGMRPECVVPENQCAMKRREKKAQKEKDKMTTSPSSQHGGNGSLASGGGQDFVKKEILDLMTCEPPQHATIPLLPDEILAKCQARNIPSLTYNQLAVIYKLIWYQDGYEQPSEEDLRRIMSQPDENESQTDVSFRHITEITILTVQLIVEFAKGLPAFTKIPQEDQITLLKACSSEVMMLRMARRYDHSSDSIFFANNRSYTRDSYKMAGMADNIEDLLHFCRQMFSMKVDNVEYALLTAIVIFSDRPGLEKAQLVEAIQSYYIDTLRIYILNRHCGDSMSLVFYAKLLSILTELRTLGNQNAEMCFSLKLKNRKLPKFLEEIWDVHAIPPSVQSHLQITQEENERLERAERMRASVGGAITAGIDCDSASTSAAAAAAQHQPQPQPQPQPSSLTQNDSQHQTQPQLQPQLPPQLQGQLQPQLQPQLQTQLQPQIQPQPQLLPVSAPVPASVTAPGSLSAVSTSSEYMGGSAAIGPITPATTSSITAAVTASSTTSAVPMGNGVGVGVGVGGNVSMYANAQTAMALMGVALHSHQEQLIGGVAVKSEHSTTA

Reference: paper PMC8824665, “Rapid Assessment of Insect Steroid Hormone Entry Into Cultured Cells” (Frontiers in Physiology, 2022)
